Results published in patent US8476434B2, “Protein kinase modulators and method of use” (Amgen Inc., priority 2004, dated 2013).
pIC50: −log10 of the molar value. Some of these results come from one statement about several compounds together.

Chains of the proteins cited; added tags and fusions are not shown. Residues count along the entry.
UniProt Q02763, 23-1124: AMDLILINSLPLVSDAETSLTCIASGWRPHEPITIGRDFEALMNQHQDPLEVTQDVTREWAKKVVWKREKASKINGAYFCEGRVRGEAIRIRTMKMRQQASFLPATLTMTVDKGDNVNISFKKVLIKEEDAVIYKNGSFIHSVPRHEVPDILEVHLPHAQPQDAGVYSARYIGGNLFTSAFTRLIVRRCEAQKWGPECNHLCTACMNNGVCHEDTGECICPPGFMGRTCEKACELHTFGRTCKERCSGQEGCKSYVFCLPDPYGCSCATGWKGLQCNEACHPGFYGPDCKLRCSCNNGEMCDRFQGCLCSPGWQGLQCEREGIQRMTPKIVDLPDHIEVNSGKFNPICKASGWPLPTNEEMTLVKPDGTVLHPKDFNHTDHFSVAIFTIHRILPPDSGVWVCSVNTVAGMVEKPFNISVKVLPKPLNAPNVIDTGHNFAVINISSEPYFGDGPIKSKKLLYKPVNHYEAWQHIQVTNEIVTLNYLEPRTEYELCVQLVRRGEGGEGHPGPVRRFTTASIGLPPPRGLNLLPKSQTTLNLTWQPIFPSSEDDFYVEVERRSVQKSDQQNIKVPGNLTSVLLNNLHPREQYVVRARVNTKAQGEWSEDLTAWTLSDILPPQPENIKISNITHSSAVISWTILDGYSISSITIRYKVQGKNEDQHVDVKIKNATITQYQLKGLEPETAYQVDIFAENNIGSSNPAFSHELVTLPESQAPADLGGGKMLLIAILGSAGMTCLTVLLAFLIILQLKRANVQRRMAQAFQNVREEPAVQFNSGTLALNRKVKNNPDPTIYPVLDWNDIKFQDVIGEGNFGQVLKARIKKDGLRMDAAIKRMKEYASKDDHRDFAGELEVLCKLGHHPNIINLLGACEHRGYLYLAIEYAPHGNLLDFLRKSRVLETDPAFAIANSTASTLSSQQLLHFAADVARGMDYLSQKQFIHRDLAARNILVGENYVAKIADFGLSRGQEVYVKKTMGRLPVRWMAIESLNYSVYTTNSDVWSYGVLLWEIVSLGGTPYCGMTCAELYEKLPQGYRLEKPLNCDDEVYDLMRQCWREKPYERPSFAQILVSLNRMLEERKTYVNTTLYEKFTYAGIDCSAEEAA
UniProt Q96GD4, whole entry: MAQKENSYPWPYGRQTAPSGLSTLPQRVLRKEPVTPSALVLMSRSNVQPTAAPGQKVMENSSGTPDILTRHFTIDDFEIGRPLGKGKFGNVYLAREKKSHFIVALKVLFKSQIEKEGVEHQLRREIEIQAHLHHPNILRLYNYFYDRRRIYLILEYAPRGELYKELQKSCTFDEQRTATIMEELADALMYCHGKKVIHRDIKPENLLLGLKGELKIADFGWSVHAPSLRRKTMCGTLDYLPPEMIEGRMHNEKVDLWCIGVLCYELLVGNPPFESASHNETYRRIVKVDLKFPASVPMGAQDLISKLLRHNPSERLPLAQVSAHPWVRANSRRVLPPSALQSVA

Columns and labels:
Assay type in all cases: biochemical
Tie-2 kinase enzyme = Tie-2 kinase enzyme (Homo sapiens, UniProt Q02763); test: Tie-2 Homogenous Time Resolved Fluorescent (HTRF) kinase assay; conditions: read-out: IC50's for the inhibition of Tie-2 as measured by the HTRF assay
AuroraA-TPX2 KD GST = target: T1, AuroraA-TPX2 KD GST (Homo sapiens, UniProt O14965); test: AuroraA-TPX2 Homogeneous Time Resolved Fluorescent (HTRF) kinase assay; conditions: read-out: activity in the Aurora kinase A HTRF assay
T1 construct: AuroraA-TPX2 KD GST; GST
T1 sequence (O14965 133-383 limits assumed): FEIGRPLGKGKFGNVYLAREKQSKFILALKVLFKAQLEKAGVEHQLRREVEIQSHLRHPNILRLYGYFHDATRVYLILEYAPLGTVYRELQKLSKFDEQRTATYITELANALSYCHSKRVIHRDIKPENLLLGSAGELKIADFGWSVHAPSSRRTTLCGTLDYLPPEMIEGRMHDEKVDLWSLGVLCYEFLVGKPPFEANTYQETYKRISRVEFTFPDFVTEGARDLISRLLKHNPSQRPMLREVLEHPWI
T1 sequence (Q9ULW0 1-43 partner limits assumed): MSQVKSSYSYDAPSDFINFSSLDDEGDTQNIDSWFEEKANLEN

AuroraB FL His = target: T2, AuroraB FL His (Homo sapiens, UniProt Q96GD4); test: AuroraB Homogeneous Time Resolved Fluorescent (HTRF) kinase assay; conditions: read-out: activity in the Aurora kinase B HTRF assay
T2 construct: AuroraB FL His; His

SMILES | pIC50 (Tie-2 kinase enzyme) | pIC50 (AuroraA-TPX2 KD GST) | pIC50 (AuroraB FL His)
CCc1cc(NC(=O)Nc2ccc(Oc3ncccc3-c3ccnc(NC)n3)cc2)ccc1C [Example 1041, N-(3-ethyl-4-methylphenyl)-N′-(4-((3-(2-(methylamino)-4-pyrimidinyl)-2-pyridinyl)oxy)phenyl)urea] | > 5.30 | > 5.00 | > 5.00
CCc1cc(NC(=O)Nc2ccc(Oc3ncccc3-c3ccnc(NC)n3)c(C)c2)ccc1C [Example 1042, N-(3-ethyl-4-methylphenyl)-N′-(3-methyl-4-((3-(2-(methylamino)-4-pyrimidinyl)-2-pyridinyl)oxy)phenyl)urea] | > 5.30 | > 5.00 | > 5.00
CNc1nccc(-c2cccnc2Oc2ccc(NC(=O)Nc3ccc(C)c(F)c3)c(C)c2)n1 [Example 1043, N-(3-fluoro-4-methylphenyl)-N′-(2-methyl-4-((3-(2-(methylamino)-4-pyrimidinyl)-2-pyridinyl)oxy)phenyl)urea] | > 5.30 | > 5.00 | > 5.00
CNc1nccc(-c2cccnc2Oc2ccc(NC(=O)Nc3ccc(Br)cc3)c(C)c2)n1 [Example 1044, N-(4-bromophenyl)-N′-(2-methyl-4-((3-(2-(methylamino)-4-pyrimidinyl)-2-pyridinyl)oxy)phenyl)urea] | > 5.30 | > 5.00 | > 5.00
CNc1nccc(-c2cccnc2Oc2ccc(NC(=O)Nc3ccc(OC)c(F)c3)c(C)c2)n1 [Example 1045, N-(3-fluoro-4-(methyloxy)phenyl)-N′-(2-methyl-4-((3-(2-(methylamino)-4-pyrimidinyl)-2-pyridinyl)oxy)phenyl)urea] | > 5.30 | > 5.00 | > 5.00
CNc1nccc(-c2cccnc2Oc2ccc(NC(=O)Nc3ccc(Br)c(F)c3)c(C)c2)n1 [Example 1046, N-(4-bromo-3-fluorophenyl)-N′-(2-methyl-4-((3-(2-(methylamino)-4-pyrimidinyl)-2-pyridinyl)oxy)phenyl)urea] | > 5.30 | > 5.00 | > 5.00
CNc1nccc(-c2cccnc2Oc2ccc(NC(=O)Nc3ccc(Cl)c(F)c3)cc2)n1 [Example 1047, N-(4-chloro-3-fluorophenyl)-N′-(4-((3-(2-(methylamino)-4-pyrimidinyl)-2-pyridinyl)oxy)phenyl)urea] | > 5.30 | > 5.00 | > 5.00
CNc1nccc(-c2cccnc2Oc2ccc(NC(=O)Nc3ccc(Cl)c(F)c3)cc2C)n1 [Example 1048, N-(4-chloro-3-fluorophenyl)-N′-(3-methyl-4-((3-(2-(methylamino)-4-pyrimidinyl)-2-pyridinyl)oxy)phenyl)urea] | > 5.30 | > 5.00 | > 5.00
CNc1nccc(-c2cccnc2Oc2ccc(NC(=O)c3cccc(N4CC[C@H](N(C)C)C4)c3)cc2C)n1 [Example 1049, 3-((3S)-3-(dimethylamino)-1-pyrrolidinyl)-N-(3-methyl-4-((3-(2-(methylamino)-4-pyrimidinyl)-2-pyridinyl)oxy)phen-yl)benzamide] | > 5.30 | > 5.00 | > 5.00
CNc1nccc(-c2cccnc2Oc2ccc(NC(=O)Nc3ccccc3)c3ccccc23)n1 [Example 1050, N-(4-((3-(2-(methylamino)-4-pyrimidinyl)-2-pyridinyl)oxy)-1-naphthalenyl)-N′-phenylurea] | > 5.30 | > 5.00 | > 5.00
CNc1nccc(-c2cccnc2Oc2ccc(NC(=O)c3ccc(N4CCN(C)CC4)cc3)cc2C)n1 [Example 1051, N-(3-methyl-4-((3-(2-(methylamino)-4-pyrimidinyl)-2-pyridinyl)oxy)phenyl)-4-(4-methyl-1-piperazinyl)benzamide] | > 5.30 | > 5.00 | > 5.00
CNc1nccc(-c2cccnc2Oc2ccc(NC(=O)c3cccc4cc[nH]c34)cc2C)n1 [Example 1052, N-(3-methyl-4-((3-(2-(methylamino)-4-pyrimidinyl)-2-pyridinyl)oxy)phenyl)-1H-indole-7-carboxamide] | > 5.30 | > 5.00 | > 5.00
CNc1nccc(-c2cccnc2Oc2ccc(NC(=O)Nc3ccc4c(c3)CCC4)cc2)n1 [Example 1053, N-(2,3-dihydro-1H-inden-5-yl)-N′-(4-((3-(2-(methylamino)-4-pyrimidinyl)-2-pyridinyl)oxy)phenyl)urea] | > 5.30 | > 5.00 | > 5.00
CNc1nccc(-c2cccnc2Oc2ccc(NC(=O)Nc3ccc4c(c3)Cc3ccccc3-4)cc2C)n1 [Example 1054, N-(9H-fluoren-2-yl)-N′-(3-methyl-4-((3-(2-(methylamino)-4-pyrimidinyl)-2-pyridinyl)oxy)phenyl)urea] | > 5.30 | > 5.00 | > 5.00
CNc1nccc(-c2cccnc2Oc2ccc(NC(=O)Nc3ccc4c(c3)CCC4)cc2C)n1 [Example 1055, N-(2,3-dihydro-1H-inden-5-yl)-N′-(3-methyl-4-((3-(2-(methylamino)-4-pyrimidinyl)-2-pyridinyl)oxy)phenyl)urea] | > 5.30 | > 5.00 | > 5.00
CNc1nccc(-c2cccnc2Oc2ccc(NC(=O)Nc3ccc(C(F)(F)F)cc3)cc2)n1 [Example 1056, N-(4-((3-(2-(methylamino)-4-pyrimidinyl)-2-pyridinyl)oxy)phenyl)-N′-(4-(trifluoromethyl)phen-yl)urea] | > 5.30 | > 5.00 | > 5.00
CNc1nccc(-c2cccnc2Oc2ccc(NC(=O)Nc3ccc(C(F)(F)F)cc3)cc2C)n1 [Example 1057, N-(3-methyl-4-((3-(2-(methylamino)-4-pyrimidinyl)-2-pyridinyl)oxy)phenyl)-N′-(4-(trifluoromethyl)phen-yl)urea] | > 5.30 | > 5.00 | > 5.00
CNc1nccc(-c2cccnc2Oc2ccc(NC(=O)Nc3ccc(C)c(F)c3)cc2C)n1 [Example 1058, N-(3-fluoro-4-methylphenyl)-N′-(3-methyl-4-((3-(2-(methylamino)-4-pyrimidinyl)-2-pyridinyl)oxy)phenyl)urea] | > 5.30 | > 5.00 | > 5.00
CNc1nccc(-c2cccnc2Oc2ccc(NC(=O)Nc3ccc4c(c3)Cc3ccccc3-4)cc2)n1 [Example 1070, N-(9H-fluoren-2-yl)-N′-(4-((3-(2-(methylamino)-4-pyrimidinyl)-2-pyridinyl)oxy)phenyl)urea] | > 5.30 | > 5.00 | > 5.00
CNc1nccc(-c2cccnc2Oc2ccc(NC(=O)Nc3ccc4c(c3)N(C(C)=O)CC4(C)C)cc2)n1 [Example 1071, N-(1-acetyl-3,3-dimethyl-2,3-dihydro-1H-indol-6-yl)-N′-(4 - ((3-(2-(methylamino)-4-pyrimidinyl)-2-pyridinyl)oxy)phenyl)urea] | > 5.30 | > 5.00 | > 5.00
CNc1nccc(-c2cccnc2Oc2ccc(NC(=O)Nc3ccc4c(c3)N(C(C)=O)CC4(C)C)cc2C)n1 [Example 1072, N-(1-acetyl-3,3-dimethyl-2,3-dihydro-1H-indol-6-yl)-N′-(3-methyl-4-((3-(2-(methylamino)-4-pyrimidinyl)-2-pyridinyl)oxy)phenyl)urea] | > 5.30 | > 5.00 | > 5.00
CNc1nccc(-c2cccnc2Oc2ccc(NC(=O)Nc3cccc(C(C)(C)C)c3)cc2)n1 [Example 1073, N-(3-(1,1-dimethylethyl)phenyl)-N′-(4-((3-(2-(methylamino)-4-pyrimidinyl)-2-pyridinyl)oxy)phenyl)urea] | > 5.30 | > 5.00 | > 5.00
CNc1nccc(-c2cccnc2Oc2ccc(NC(=O)Nc3cccc(C(C)(C)C)c3)cc2C)n1 [Example 1074, N-(3-(1,1-dimethylethyl)phenyl)-N′-(3-methyl-4-((3-(2-(methylamino)-4-pyrimidinyl)-2-pyridinyl)oxy)phenyl)urea] | > 5.30 | > 5.00 | > 5.00
CNc1nccc(-c2cccnc2Oc2ccc(NC(=O)Nc3cccc(C(C)(C)C)c3)c(C)c2)n1 [Example 1075, N-(3-(1,1-dimethylethyl)phenyl)-N′-(2-methyl-4-((3-(2-(methylamino)-4-pyrimidinyl)-2-pyridinyl)oxy)phenyl)urea] | > 5.30 | > 5.00 | > 5.00
CNc1nccc(-c2cccnc2Oc2ccc(NC(=O)Nc3cccc(C(C)(C)C)c3)c(C)c2C)n1 [Example 1076, N-(3-(1,1-dimethylethyl)phenyl)-N′-(2,3-dimethyl-4-((3-(2-(methylamino)-4-pyrimidinyl)-2-pyridinyl)oxy)phenyl)urea] | > 5.30 | > 5.00 | > 5.00
CNc1nccc(-c2cccnc2Oc2ccc(NC(=O)Nc3ccc(C)c(F)c3)c3ccccc23)n1 [Example 1078, N-(3-fluoro-4-methylphenyl)-N′-(4-((3-(2-(methylamino)-4-pyrimidinyl)-2-pyridinyl)oxy)-1-naphthalenyl)urea] | > 5.30 | > 5.00 | > 5.00
CNc1nccc(-c2cccnc2Oc2ccc(NC(=O)Nc3ccc(C(C)(C)C)cc3)c3ccccc23)n1 [Example 1079, N-(4-(1,1-dimethylethyl)phenyl)-N′-(4-((3-(2-(methylamino)-4-pyrimidinyl)-2-pyridinyl)oxy)-1-naphthalenyl)urea] | > 5.30 | > 5.00 | > 5.00
